# Library screening results

A: 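Whole-cell assay for inhibitors of Mycobacterium tuberculosis growth, labelled Cornell in the record; the read-out is not stated. The concentration is filed as 10 mM, unlikely as a test dose, so the dose is not known. The record gives no direction; compounds strong in two other growth screens of this library score well above the rest, so higher reads as stronger inhibition. Size under these conditions: about 53,000 compounds, about 900 of them at 50% or above in at least one test.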
B: 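Assay on Mycobacterium tuberculosis, filed only as a heat shock assay from Cornell; the read-out is not stated. The concentration is filed as 10 mM, unlikely as a test dose, so the dose is not known. The record gives no direction; compounds that gave an IC50 in retests scored well above the rest, so higher reads as stronger inhibition. About 69,000 compounds were tested under these conditions; 1.4% (about 930) showed 50% or more at least once.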

Each number is a percent effect as filed.
How 0% and 100% were set is not recorded. Most values in the screen are low, and negative values occur.
Compounds were drawn at random from those tested, without regard to their results.
A dash means the value is not listed here; it may have been measured.

SMILES | A | B
COc1cc2ncn(CC(=O)NCCCN(C)C)c(=O)c2cc1OC | - | 11
Cc1noc(C2CCC3(CCN(C(=O)c4c(C)noc4C)CC3)O2)n1 (stereo not shown) | 0.8972 | 4.706
CCN(Cc1ccc(Cl)s1)S(=O)(=O)CC | - | 5.867
O=C1CCC2(CCN(CC[C@H](O)c3ccccc3)CC2)CN1CCO | - | 6.006
CC(Cn1cccn1)NC(=O)N1CCN(Cc2ccco2)CC1 (stereo not shown) | - | -4.821
CC(C)c1nn(C)c(N2CCOCC2)c1CNC(C)c1cccs1 (stereo not shown) | 20.69 | 13.89
CCN1CCC(NC(=O)Cn2cc(C)c3ccccc32)CC1 | 3.021 | -11.32
Cn1nnnc1SC1CCCN(c2ccccc2Cl)C1=O (stereo not shown) | -4.787 | 11.12
Cc1nn2cc(CCNC(=O)c3cc(C(C)C)nn3C)nc2s1 | -48.1 | -10.02
NC(=O)c1ccc(N2CCCCC2)c(NC(=O)c2ccc(Br)cc2)c1 | - | 10.84
c1coc(-c2nc3c(c(NCc4n[nH]c5c4CCC5)n2)CCNCC3)c1 | - | -50.31
Cc1nc(C2CCCN(C(=O)CN3CCCC3=O)C2)sc1C (stereo not shown) | - | -3.867
O=C(Nc1ccccc1)c1nn(C2CCS(=O)(=O)C2)c2c1CCCC2 (stereo not shown) | 14.2 | 35.94
CCNC(=O)N1CCN(C(=O)c2cc(Cl)cc3cccnc23)CC1 | 2.592 | 11.78
CCn1cncc1C1CC(=O)Nc2c1c(C)nn2-c1ccc(C)cc1 (stereo not shown) | - | -22.65
COc1ccc(C)cc1CN(CC(N)=O)C(C)C | -4.011 | -1.76
Cc1nc(O)cc(C2CCN(Cc3cccc(F)c3F)C2)n1.O=C(O)CC(O)(CC(=O)O)C(=O)O (stereo not shown) | -1.572 | -7.672
O=C(CN1CCCCCC1)NCc1cccnc1Oc1ccccc1 | 4.875 | 2.86
Cc1ccc(OCC(=O)Nc2ncccc2OC(F)F)cc1 | 13.36 | -7.104
CN(C(=O)C1CCN(Cc2cnc3ccccn23)CC1)c1ccccc1 | 6.969 | -26.8
COc1cccc(CNCc2c(C)nc3sc(C)cn23)c1OC | - | -14.39
CCn1ncc(CN2CCCC(C(=O)c3ccc(Cl)cc3)C2)c1C (stereo not shown) | 12.04 | -25.79
[H][C@]12CC[C@]([H])(CN(Cc3nnc(C4CC4)o3)C1)N(CC1CCC1)C2 | 14.78 | 16.6
Cc1ccc(CCC(C)NC2CCN(C(N)=O)CC2)cc1 (stereo not shown) | -7.456 | 11.41
O=C(C1CCN(c2ncnc3cccc(F)c23)CC1)N1CCCC1 | 7.667 | -14.74
COC(=O)NCCCC(=O)NC1(c2cccc(Cl)c2)CC1 | -5.26 | 15.2
CCN(CCOC)C(=O)CCc1scnc1C | 1.165 | 17.18
CCOCc1nc2c(c(NC(CC)c3cccnc3)n1)CCNCC2 (stereo not shown) | - | -30.82
CC(C)COC(=O)N1CCCN(C(C)c2nc(C(C)C)no2)CC1 (stereo not shown) | 10.17 | -25.82
CC(=O)c1cc(Br)cc(F)c1OCC(=O)NC1CC1 | 18.88 | 0.3564
COc1ccc([C@@H]2CN(Cc3ccncc3)C[C@H]2c2cc[nH]n2)cc1.O=C(O)CC(O)(CC(=O)O)C(=O)O | 34.94 | -9.681
O=C(c1ccno1)N1CC2(CCC(C(=O)N3CCCC3)O2)C1 (stereo not shown) | 13.46 | -6.149
CN(Cc1cnn(C)c1)C(=O)C1COCC(=O)N1Cc1ccccc1 (stereo not shown) | -29.61 | -0.9095
[H][C@]12CC[C@]([H])(CC(=O)N(CC(=O)N(C)CCCOc3ccccc3Cl)C1)N2 | - | 2.898
O=C(C1CCC1)N1CCCn2nc(CNc3ncccn3)cc2C1 | 5.205 | 0.1951
[H][C@@]12COC[C@]1(COC)CN(C(=O)C1CCSCC1)C2 | -58.49 | -10.54
CCCn1nc(C(=O)N(C)Cc2nnc3n2CCC3)ccc1=O | -5.439 | -3.965
Cn1nc(Cn2ccnc2)c2c1CN(C(=O)c1ccoc1)C2.O=C(O)C(F)(F)F | 10.01 | 10.42
Cc1ccc(C)c(CC(=O)NC2CCCS(=O)(=O)C2)c1 (stereo not shown) | -15.94 | -12.53
CCN(Cc1nc2c(cnn2C)c(=O)[nH]1)c1cc(C)cc(C)c1 | -12.78 | 19.81
CN1CCN(C(=O)Cc2ccccn2)Cc2cccnc21 | -8.07 | -6.291

The first 5 entries again:

* COc1cc2ncn(CC(=O)NCCCN(C)C)c(=O)c2cc1OC : B: 11%
* Cc1noc(C2CCC3(CCN(C(=O)c4c(C)noc4C)CC3)O2)n1 (stereo not shown) : A: 0.8972%; B: 4.706%
* CCN(Cc1ccc(Cl)s1)S(=O)(=O)CC : B: 5.867%
* O=C1CCC2(CCN(CC[C@H](O)c3ccccc3)CC2)CN1CCO : B: 6.006%
* CC(Cn1cccn1)NC(=O)N1CCN(Cc2ccco2)CC1 (stereo not shown) : B: -4.821%

From ChEMBL document CHEMBL3988442, “University of Dundee, Small-Polar-MMV Screening Library” (2021).